Test results: US20260098102A1
Residue numbers refer to the chain shown, from its start. No constants are given. Whether binding was seen depends on the method and setting. Some binding calls cover weakened binding; strength is not graded here. One block for each binder: values may come before it.

Protein sequences, listed by entry. Tags and fused reporters are not part of them. Lines headed by an entry give the natural chain unless they say otherwise; changes in a name come on top.
UniProt P78324: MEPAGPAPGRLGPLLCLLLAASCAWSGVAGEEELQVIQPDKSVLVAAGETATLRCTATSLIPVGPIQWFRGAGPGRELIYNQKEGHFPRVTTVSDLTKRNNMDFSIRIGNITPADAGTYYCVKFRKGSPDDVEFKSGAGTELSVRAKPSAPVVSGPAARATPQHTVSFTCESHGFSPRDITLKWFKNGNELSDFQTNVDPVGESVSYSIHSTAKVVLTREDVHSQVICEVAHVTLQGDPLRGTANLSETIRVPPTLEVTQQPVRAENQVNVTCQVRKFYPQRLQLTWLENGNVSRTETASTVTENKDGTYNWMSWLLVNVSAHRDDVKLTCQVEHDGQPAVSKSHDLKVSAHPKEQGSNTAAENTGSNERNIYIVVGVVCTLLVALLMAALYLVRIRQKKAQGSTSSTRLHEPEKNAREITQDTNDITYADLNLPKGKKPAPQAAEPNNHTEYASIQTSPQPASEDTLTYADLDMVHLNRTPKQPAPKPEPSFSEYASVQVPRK

Key:
[1] = target: SIRPA_V2_IgV (human); assay: SPR Biacore T200, antibody captured, antigen as analyte
[2] = target: human SIRPA_V10 (human) (UniProt P78324); assay: cell-based ELISA on 293α cells expressing FLAG-tagged SIRPA_V10; Abs 490 normalized to FLAG tag [ii]
[3] = target: human SIRPA_V10 (human) (UniProt P78324); assay: cell-based ELISA, transfected 293α cells, 0 to 10,000 ng/ml; cD13 is the reference
[4] = target: human SIRPA_V2_IgV_IgC1 variant (human) (UniProt P78324); assay: cell-based ELISA on 293α cells expressing the FLAG-tagged construct, antibody 10,000 ng/mL; Abs 490 normalized to FLAG tag [panel B]
[5] = target: human SIRPA_V10 (human) (UniProt P78324); assay: cell-based ELISA, transfected 293α cells
[6] = target: human SIRPA_V2_IgV_IgC1 variant (human) (UniProt P78324); assay: cell-based ELISA, transfected 293α cells, 10,000 ng/mL, normalized to FLAG
[7] = target: human SIRPA_V10 (human) (UniProt P78324); assay: as above
[8] = target: SIRPA_V2_IgV (human); assay: gel filtration (Superdex 75) of the complex, then crystallization
[9] = target: human SIRPA_V10 (human) (UniProt P78324); assay: cell-based ELISA, transfected 293α cells, 0 to 10,000 ng/ml

B1: OSE-172 (antibody, human IgG4 S228P, kappa, V domains shown)
VH: EVQLVQSGAEVKKPGESLRISCKASGYSFTSYWVHWVRQMPGKGLEWMGNIDPSDSDTHYSPSFQGHVTLSVDKSISTAYLQLSSLKASDTAMYYCVRGGTGTLAYFAYWGQGTLVTVSS
VL: DVVMTQSPLSLPVTLGQPASISCRSSQSLVHSYGNTYLYWFQQRPGQSPRLLIYRVSNRFSGVPDRFSGSGSGTDFTLKISRVEAEDVGVYYCFQGTHVPYTFGGGTKVEIKR
binding [1]: no binding (tested: antigen 0.25 to 16 nM)

B3: rat anti-human SIRPA monoclonal antibody D13 (antibody, V domains shown)
VH: EVQLVESGGGLVQPGRSLKLSCLASGFTFSDYGMIWVRQAPGKGLEWVASISSSSSYIYYADTVKGRFTISRENAKNTLFLHMTSLRSEDTALYYCARRYYGFNYPFDYWGQGVMVTVSS
VL: DTVLTQSPALAVSLGQRVTISCGASKSVRTYMHWYQQKSGQQPKLLIYSASNLEAGVPSRFSGSGSGTDFTLTIDPVEADDIANYYCQQSNEPPYTFGAGTKLELK
binding [4]: binds
binding [5]: binds
binding [6]: binds
binding [7]: binds

B5: humanized anti-SIRPA antibody hD13_H1L3 (antibody, human IgG4 S228P, kappa, F234A L235A, V domains shown)
VH: QVQLVESGGGVVQPGRSLRLSCAASGFTFSDYGMIWVRQAPGKGLEWVASISSSSSYIYYADSVKGRFTISRDNSKNRLYLQMNSLRAEDTAVYYCARRYYGFNYPFDYWGQGTMVTVSS
VL: DTQLTQSPSSLSASVGQRVTITCGASKSVRTYMHWYQQKPGKQPKLLIYSASNLEAGVPSRFSGSGSGTDFTLTISSLQPEDFATYYCQQSNEPPYTFGQGTKLEIKR
binding [2]: binds
binding [9]: binds

B7: humanized anti-SIRPA antibody hD13_H2L2 (antibody, human IgG4 S228P, kappa, F234A L235A, V domains shown)
VH: B5 VH with Q1E, R78T
VL: B5 VL with D1A, T2I, Q43A
binding [2]: binds
binding [9]: binds

Second part, the binder after the results:

binding [2]: binds
binding [3]: binds
B2: human chimeric anti-SIRPA antibody cD13 (antibody, human IgG4 S228P, kappa, F234A L235A, V domains shown)
VH: B3 VH
VL: DTVLTQSPALAVSLGQRVTISCGASKSVRTYMHWYQQKSGQQPKLLIYSASNLEAGVPSRFSGSGSGTDFTLTIDPVEADDIANYYCQQSNEPPYTFGAGTKLELKR

binding [8]: binds
B4: Fab fragment of the cD13 antibody (Fab, V domains shown)
VH: B3 VH
VL: B2 VL

binding [2]: binds
binding [9]: binds
B6: humanized anti-SIRPA antibody hD13_H2L3 (antibody, human IgG4 S228P, kappa, F234A L235A, V domains shown)
VH: B5 VH with Q1E, R78T
VL: B5 VL

binding [2]: binds
binding [9]: binds
B8: humanized anti-SIRPA antibody hD13_H1L4 (antibody, human IgG4 S228P, kappa, F234A L235A, V domains shown)
VH: B5 VH
VL: DTVLTQSPDSLAVSLGQRATINCGASKSVRTYMHWYQQKPGQQPKLLIYSASNLEAGVPSRFSGSGSGTDFTLTISSLQAEDVAVYYCQQSNEPPYTFGQGTKVEIKR

binding [4]: binds
binding [5]: binds
binding [6]: binds
binding [7]: binds
B9: rat anti-human SIRPA monoclonal antibody F44 (antibody, V domains shown)
VH: EVQLVESGGGLVQPGRSLKLSCAASGFTFSNYYMAWVRQAPTKGLEWVTYITTGGGSTYFRDSVKGRFTISRDNAESTLYLQMDSLRSEDTATYYCTAANYGGSYFDYWGQGVMVTVSS
VL: DVQMTQSPSNLAASPGESVSINCKASKSISKYLAWYQQKPGKANKLLIYSGSTLQSGTPSRFSGSGSGTDFTLTIRNLEPEDFGLYYCQQHNEYPPTFGAGTKLELK

binding [4]: binds
binding [5]: binds
binding [6]: binds
binding [7]: binds
B10: rat anti-human SIRPA monoclonal antibody F63 (antibody, V domains shown)
VH: QVQLKESGPGLVQPSETLSLTCTVSGFSLASYSLSWVRQPSGKGPEWMGRMYYDGDTAYNSALKSRLSISRDTSKNQVFLKMNSLQTDDTGTYYCTRDRSMFGTDYPHWYFDFWGPGTMVTVSS
VL: QFTLTQPKSVSGALRSTITIPCERSSGDIGDSYVSWYQRHLGRPPINVIYADDQRPSEVSDRFSGSIDSSSNSASLTITNLQMDDEADYFCQSYDSKIDIFGGGTKLTVL
